Values joined by “and” are separate entries in the source; they are usually repeats but may differ in a detail not shown here. Equal entries are not always repeated. The whole screen tested about 78,000 compounds, of which about 1,800 (2.3%) were called active. The shares of active, inactive and inconclusive entries below differ from those in the screen. Rule as the data show it: active = inhibition above about 30%; inconclusive = mostly about 10% to 28%; inactive = weaker than that.
target: Interleukin-1 receptor-like 1 (Homo sapiens) (UniProt Q01638); assay: blocks human ST2 binding to IL-33, primary screen, biochemical, AlphaLISA (AID 1259354); conditions: AlphaLISA ST2-Fc/biotin-IL-33 interaction, 1 h; at 17 µM, stronger effect = higher value

The chains behind the UniProt entries cited, without tags or fusion partners. Where a name states a change or a piece, a line headed by the entry shows the natural chain unless it says otherwise.
UniProt Q01638: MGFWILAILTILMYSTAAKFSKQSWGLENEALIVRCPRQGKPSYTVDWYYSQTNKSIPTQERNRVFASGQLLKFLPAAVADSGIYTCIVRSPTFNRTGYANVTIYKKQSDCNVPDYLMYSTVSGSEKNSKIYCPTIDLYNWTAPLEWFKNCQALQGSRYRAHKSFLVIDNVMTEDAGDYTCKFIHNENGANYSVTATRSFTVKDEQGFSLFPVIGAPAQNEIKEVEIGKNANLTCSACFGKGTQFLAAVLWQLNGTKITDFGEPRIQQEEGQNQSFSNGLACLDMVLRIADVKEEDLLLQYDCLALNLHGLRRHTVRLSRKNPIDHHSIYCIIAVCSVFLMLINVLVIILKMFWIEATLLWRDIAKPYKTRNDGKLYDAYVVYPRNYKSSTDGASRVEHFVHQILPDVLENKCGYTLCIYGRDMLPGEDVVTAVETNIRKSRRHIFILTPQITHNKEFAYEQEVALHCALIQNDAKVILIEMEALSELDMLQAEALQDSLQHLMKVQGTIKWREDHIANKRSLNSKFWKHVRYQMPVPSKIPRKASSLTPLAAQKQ

Compound | inhibition
COc1ccc(CCNC(=O)C2CCCNC2=O)cc1OC (centres undefined) | inconclusive: 10%
Fc1cnc(NCCc2cccs2)nc1N1CCOCC1 | inactive
CN1CC2(CCN(C(=O)CCCOCc3ccccc3)C2)OC1=O (centres undefined) | inconclusive: 14%
CCOC(=O)c1ccc(NC(=O)N2Cc3[nH]cnc3C[C@H]2c2nc(-c3ccc(Cl)cc3)no2)cc1 | inconclusive: 18%
CCOc1ccc(N2CC(O)Cn3c2nc2c3c(=O)n(C)c(=O)n2C)cc1 (centres undefined) | inconclusive: 18%
O=C(NCc1ccc(F)cc1)c1cc(-c2ccncc2)nc2ccccc12 | inconclusive: 11%
COCCc1nc(Cn2cnnc2)no1 | inactive
O=C(c1cccn2c(=O)c3c4c(sc3nc12)CCCC4)N1CCC(Cc2ccccc2)CC1 | inactive
Cc1cc(-c2nc3cc(NC(=O)C(C)C)ccc3o2)ccc1Br | inconclusive: 11%
CC1=C[C@@H](CNCc2ccncc2)[C@H](C(C)C)C[C@H]1Cc1nnc(-c2ccc(N(C)C)cc2)o1 | inconclusive: 16%
COc1ccccc1N1CCN(C(=O)C[C@@H]2O[C@H](CNS(=O)(=O)c3ccccc3)[C@@H](O)[C@H]2O)CC1 | inconclusive: 13%
CCSC1=C(C#N)C(c2ccc(C(C)C)cc2)CC(=O)N1 (centres undefined) | inactive
Cc1cnc(C(=O)N2CCc3c([nH]c4ccccc34)C2c2ccc(F)cc2)cn1 (centres undefined) | inconclusive: 13%
CCSc1nc(C)cc(OC(NC(=O)c2ccccc2)C(=O)c2ccccc2)n1 (centres undefined) | inconclusive: 10%
CC(C)c1ccc(NS(=O)(=O)c2cc(Br)cc3c2N(C(=O)C2CC2)CC3)cc1 | inconclusive: 11%
Cc1ccc(C2=C/C(=C\c3cccs3)C(=O)O2)cc1C | active: 68%
CCc1ccc(OCC(=O)O/N=C(/N)c2cccnc2)c(Br)c1 | inconclusive: 18%
COc1ccccc1-n1c(O)c(C=Nc2ccccc2)c2ccccc2c1=O | inconclusive: 16%
CCC1CN(CCN2CCCC2=O)CCC(=O)N1Cc1ccccc1 (centres undefined) | inconclusive: 15%
CC(C)Cc1cc(Cn2cnnc2)no1 | inconclusive: 17%
CN(Cc1ccc2cccc(O)c2n1)Cc1noc(C2CCC2)n1 | inactive
COc1ccc(Nc2cc(C)nc(Nc3ccc(NC(=O)c4ccc(Cl)cc4)cc3)n2)cc1 | inconclusive: 21%
COc1nc(N(C)C)nc(N(C)C)n1 | inactive
CN(C)c1ccc(/C=C\c2nc3ccccc3c(=O)n2-c2ccc(C(=O)O)cc2)cc1 | inactive

Compound | inhibition
O=C(c1ccccc1-c1ncc[nH]1)N1C[C@@H]2C3CCC(CC3)[C@@H]2C1 | inactive
COc1ccc(C2C(C(=O)Nc3ccccn3)=C(C)NC3=C2C(=O)CC(C)(C)C3)cc1 (centres undefined) | inactive
O=C(Cn1ccc2ccccc2c1=O)NCC(=O)N1CCCCCC1 | inactive
Cc1ccc(CC(=O)N2CCC3(CC2)c2ccccc2[C@@H](N)[C@@H]3O)cc1C | inconclusive: 13%
COCCc1noc(C2CCCCN2C(=O)c2ccc(F)c(C)c2)n1 (centres undefined) | inconclusive: 14%
O=C(Nc1ccc(C(=O)N2[C@@H]3CC[C@H]2CC(O)C3)cc1)C1CCC1 (some centres undefined) | inconclusive: 19%
CN(Cc1ccc(C(=O)Nc2ccc3c(c2)CCC3=O)cc1)C1CCOCC1 | inconclusive: 10%
Cc1ccc(CCC(=O)Nc2ccc(OC(F)(F)F)cc2)o1 | inconclusive: 13%
CN(Cc1cc2n(n1)CCNC2)Cc1nc2ccc(F)cc2[nH]1 | inconclusive: 15%
Cc1ccc(NC(=O)CC(=O)NCCC2COc3ccccc3O2)cc1 (centres undefined) | inactive
c1ccc(-c2nc3c(c(NCc4cn5c(n4)SCC5)n2)CCNC3)cc1 | inactive
O=S(=O)(c1ccccc1)N(Cc1ccccc1)Cc1ccccc1 | inactive
CSCc1nnc(NC(=O)c2ccc(S(=O)(=O)N3CCCCCC3)cc2)o1 | inconclusive: 18%
O=C(c1cnn(Cc2ccccc2)c1)N1CCCC(Nc2ccc3c(c2)OCCO3)C1 (centres undefined) | inconclusive: 20%
CCc1ccc(NS(=O)(=O)c2cc(Br)cc3c2N(C(=O)C2CC2)CC3)cc1 | inconclusive: 14%
COc1ccccc1Cc1noc(/C=C/c2ccccc2Cl)n1 | inactive
Cc1ccc(C(=O)NCc2ccccc2)cc1S(=O)(=O)N1CCCC1 | inconclusive: 11%
Cc1ccccc1/C=C1\Sc2ccccc2N(CC(=O)NC(C)c2ccccc2)C1=O (centres undefined) | active: 32%
CNCCNS(=O)(=O)c1cccc2cnccc12 | inconclusive: 16%
CC1NC(=O)NC1CCCCC(=O)O (centres undefined) | active: 46%
CC(C)N1C(=O)S/C(=C/c2ccccc2OCc2ccc(C(=O)O)cc2)C1=O | inconclusive: 25%
CCCOC(=O)C1C2C=CC3(CN(CCc4ccccc4)C(=O)C13)O2 (centres undefined) | inconclusive: 11%
Cc1csc(NC(=O)CCCc2nc3cccnc3n2Cc2ccc(F)cc2)n1 | inactive
NC(=O)c1sc2nccc(Nc3ccccc3)c2c1N | inconclusive: 17%

Compound | inhibition
O=C(Nc1ncc2c(n1)CC(c1ccc(Cl)cc1)CC2=O)c1ccccc1 (centres undefined) | inconclusive: 12%
COc1ccc(-c2cc(C(=O)O)cc(S(=O)(=O)N3CCCC3)c2)cc1F | inconclusive: 10%
O=C(COc1ccc2ccccc2c1)NCCSc1c[nH]c2ccccc12 | inactive
CC(=O)N1c2c(cc(Br)cc2S(=O)(=O)N2CC=C(c3ccccc3)CC2)CC1C (centres undefined) | inactive
COc1cccc(/C=C2/C=C(c3cc(OC)ccc3OC)OC2=O)c1 | active: 42%
CCCC(=O)N1c2ccccc2NC2=C(C(=O)CCC2)C1c1ccccc1Cl (centres undefined) | inactive
O=C(Cn1cnc2c(oc3ccccc32)c1=O)Nc1cccc(F)c1 | inactive
Cc1ccc(CNC(=O)Cc2c(C(=O)O)[nH]c3ccc(Cl)cc23)o1 | inconclusive: 11%
O=C(CSc1nc2ccccc2nc1N1CCOCC1)N1CCN(c2ccccn2)CC1 | inactive
COc1ccc(-c2nc(-c3ccc(C(=O)O)cc3)[nH]c2-c2ccccc2)cc1OC | inactive
CC(CC(=O)Nc1nc2ccc([N+](=O)[O-])cc2s1)c1ccccc1 (centres undefined) | inactive
CCc1cc2c(cc3c(=O)n(CC(=O)N4CCN(c5ccccn5)CC4)nc(CC)n32)s1 | inconclusive: 13%
COc1cc2c(cc1OC)C(C(=O)NCCN1CCOCC1)C(c1ccccc1F)N(C)C2=O (centres undefined) | inconclusive: 15%
COc1ccc2nc3oc(C(=O)Nc4ccc(F)cc4Cl)cc3cc2c1 | inconclusive: 18%
CC(=O)N1CCCN(Cc2cnc(S(=O)(=O)CC3CC3)n2CC2CCCCC2)CC1 | inactive
O=C(Nc1ccc2c(c1)OCCO2)c1cc2cc3ccc(Cl)cc3nc2o1 | active: 47% and inconclusive: 13%
O=C(Cc1ccc(Cl)cc1)N1CCN(S(=O)(=O)c2cc3c4c(c2)CCN4C(=O)CC3)CC1 | inconclusive: 13%
C=CCSc1nnc2c(n1)OC(c1ccc(OCC)c(OC)c1)N(C(C)=O)c1ccccc1-2 (centres undefined) | inconclusive: 14%
COc1ccccc1C1SCCN1S(=O)(=O)c1ccc(Cl)c(Cl)c1 (centres undefined) | inconclusive: 12%
COc1cccc(CN2CCN(c3cccc(C)c3C)CC2)c1OC | inactive
CC1=C(C(=O)Nc2ccc(Cl)cc2)C(c2ccncc2)n2ncnc2N1 (centres undefined) | inactive
Cc1c(Cl)cccc1NC(=O)c1cc2ccccc2oc1=O | inconclusive: 10%
Cc1ccccc1CCC1CCCN(C(=O)c2ccc3sc(N)nc3c2)C1 (centres undefined) | inconclusive: 10%
O=c1[nH]c(SCc2cccc(F)c2)nc2c1cnn2-c1ccc(F)cc1 | inactive

Among those listed so far, 5 have an aryl thioether with sulfur outside any ring:
Compound | inhibition
CCSc1nc(C)cc(OC(NC(=O)c2ccccc2)C(=O)c2ccccc2)n1 (centres undefined) | inconclusive: 10%
O=C(COc1ccc2ccccc2c1)NCCSc1c[nH]c2ccccc12 | inactive
O=C(CSc1nc2ccccc2nc1N1CCOCC1)N1CCN(c2ccccn2)CC1 | inactive
C=CCSc1nnc2c(n1)OC(c1ccc(OCC)c(OC)c1)N(C(C)=O)c1ccccc1-2 (centres undefined) | inconclusive: 14%
O=c1[nH]c(SCc2cccc(F)c2)nc2c1cnn2-c1ccc(F)cc1 | inactive

Next results follow:

Compound | inhibition
CC(=O)c1cccc(NC(=O)CN2CCCN(Cc3cccc(Cl)c3)S2(=O)=O)c1 | inconclusive: 13%
Oc1ccc(Cn2cnc3ccccc32)c2cccnc12 | inactive
COc1cc(N2CCN(CC(C)(C)N3CCOCC3)CC2)nc(OC)n1 | inconclusive: 18%
O=C(c1nc2ncccn2n1)N1CCCC(c2[nH]ncc2Cc2ccccc2)C1 (centres undefined) | inactive
CNc1ncnc2c1ncn2[C@@H]1O[C@H](CO)[C@@H](O)[C@H]1O | inconclusive: 14%
C/C=C(/COC(=O)/C(C)=C/C)C(=O)OC/C=C/c1ccc(OC)cc1 | inconclusive: 13%
COc1cc(C2Nc3ccc(Cl)cc3C(c3ccccc3)O2)cc(OC)c1OC (centres undefined) | inactive
COc1cccc(NC(=O)N[C@H]2[C@H](O)[C@@H](N3CCCC3)[C@@H]3OC[C@H]2O3)c1 | active: 47%
O=C(NCc1cnn2ccccc12)C1CCCN(c2ccccn2)C1 (centres undefined) | inconclusive: 16%
O=C(Nc1ccccc1)C(=O)N1CCCC(c2[nH]ncc2Cc2ccccc2)C1 (centres undefined) | inactive
COc1ccccc1N1CCN(c2ncnc3c2cnn3-c2ccccc2)CC1 | inconclusive: 15%
COc1ccc(Cc2nnc(NC(=O)NC3CCNCC3)s2)cc1OC | inconclusive: 21%
O=[N+]([O-])c1ccc(N2CCN(c3ncccn3)CC2)nc1 | inconclusive: 26%
COc1ccc(CC(=O)Nc2c(C)cccc2C)cc1 | inconclusive: 11%
Nc1ccc2sc(-c3ccccc3O)nc2c1 | inconclusive: 14%
O=C(Nc1c(F)c(F)c(F)c(F)c1F)c1cccs1 | inconclusive: 15%
CSCCOC(=O)C1=C(C)NC(=O)NC1c1cc2c(cc1Br)OCO2 (centres undefined) | inactive
COCCn1cc(C(=O)N2CCN(c3ccccc3F)CC2)c2c3ccccc3n(C)c2c1=O | inconclusive: 11%
COc1cc(OC)c(C2SCCN2C(=O)c2cc3ccccc3oc2=O)cc1OC (centres undefined) | inconclusive: 20%
COCCCNS(=O)(=O)c1cccc2cccnc12 | inactive
CCN(CC)CN1C(=O)C(=Nc2cccc(C(F)(F)F)c2)c2ccccc21 | active: 32%
COc1ccc(-n2ncnc2-c2ccc(Cl)cc2Cl)cc1 | inconclusive: 19%

For reference, some entries already given.
Compound | inhibition
O=[N+]([O-])c1ccc(N2CCN(c3ncccn3)CC2)nc1 | inconclusive: 26%
COc1ccc(CC(=O)Nc2c(C)cccc2C)cc1 | inconclusive: 11%
